Results from publication PMC3907856.
No constants are given. Whether binding was seen depends on the method and setting. Binding seen in cells or lysates may run through a third protein. Binding can be weak; no strength is given.

Biological target: T1, phostensin-β (human) (UniProt Q6NYC8)
T1 sequence: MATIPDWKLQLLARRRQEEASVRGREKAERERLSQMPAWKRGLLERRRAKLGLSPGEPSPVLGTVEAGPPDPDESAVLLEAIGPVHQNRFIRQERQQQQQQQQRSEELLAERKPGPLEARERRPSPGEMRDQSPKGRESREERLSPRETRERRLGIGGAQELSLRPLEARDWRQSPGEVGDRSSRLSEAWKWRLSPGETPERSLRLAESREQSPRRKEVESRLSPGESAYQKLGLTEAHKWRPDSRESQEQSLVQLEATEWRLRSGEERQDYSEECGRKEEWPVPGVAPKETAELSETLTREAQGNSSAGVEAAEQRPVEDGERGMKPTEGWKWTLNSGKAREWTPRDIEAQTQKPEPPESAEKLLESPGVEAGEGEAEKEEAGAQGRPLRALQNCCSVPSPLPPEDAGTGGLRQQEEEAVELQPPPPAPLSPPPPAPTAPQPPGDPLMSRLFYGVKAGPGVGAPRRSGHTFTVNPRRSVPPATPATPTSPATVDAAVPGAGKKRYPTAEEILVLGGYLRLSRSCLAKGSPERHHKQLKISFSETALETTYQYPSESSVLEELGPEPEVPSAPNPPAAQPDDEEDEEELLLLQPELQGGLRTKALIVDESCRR
Assay: co-IP; 293T cells co-transfected with pPP1-EGFP and pCMV-SPORT6 phostensin-β, 48 h; RIPA extract (300 ug) precipitated by PT2 on protein G-Sepharose; western blot with anti-EGFP antibody

Substance: PP1-EGFP
- binding: binds
